Results from patent US20200398077A1, “SYSTEM AND METHOD TO ERADICATE A MAJORITY OF DISEASE-CAUSING GERMS AND PRODUCE AVIRULENT PHENOTYPE SURVIVORS S[…] MI[…] A LIGHT DOSE REGIMENT” (priority 2019, published 2020).
At least one compound was matched to its structure with a doubt left.

Columns and labels:
[1] = tested on: Depigmented Generation 2 avirulent phenotype survivors (MRSA G2); assay: Kirby-Bauer zones of inhibition (ZOI) antibiotic susceptibility assay, depigmented survivor Generation 2; type: cell-based, S. aureus; conditions: MRSA G2 (Generation 2), panel 124; after light dose regiment
Method: (§1) Table 7 below show and example of a Clinical laboratories Science Institute (CLSI) reference table typically used by clinicians and clinical microbiology laboratories to establish whether a clinical isolate is susceptible, intermediate or resistant to a particular type of antibiotic under the Kirby-Bauer ZOI assay:
(§2) In one example, the Kirby-bauer Zones of Inhibition (Z01) assay was performed on the untreated MRSA parent strain and the two generations of the depigmented avirulent phenotype survivors susceptible to microbicides were created by applying the light dose regiment of system 10 and the method thereof discussed above based on the CLSI guidelines, See Table 8 below:
(§3) The first generation (G1) is the avirulent phenotype survivors susceptible to microbicides created by system 10 and the method thereof and the second generation (G2) is the avirulent phenotype survivors susceptible to microbicides created by system 10 and the method thereof. In this example, the ZOI for Linezolid is indicated at 90, the ZOI for Norfloxacin is indicated at 92, the ZOI for Cefprozil is indicated at 94, ZOEs 96 and 98 are blank, ZOI 100 is for Rifampin, ZIO 102 is for Oxacillin and ZOI 104 is for Tetracycline. […] In this example, the ZOIs were measured at 24 hours and 72-hours past-challenge. […]

[2] = tested on: S. aureus ATCC 33592 (MRSA) Parental Wild-Type; assay: Kirby-Bauer zones of inhibition (ZOI) antibiotic susceptibility assay, untreated MRSA parent strain; type: cell-based
Method: as §1, §2, §3

[3] = tested on: Depigmented Generation 1 avirulent phenotype survivors (MRSA G1); assay: Kirby-Bauer zones of inhibition (ZOI) antibiotic susceptibility assay, depigmented survivor Generation 1; type: cell-based, S. aureus; conditions: MRSA G1 (Generation 1), panel 122; after light dose regiment
Method: as §1, §2, §3

Question: For CN(C)[C@@H]1C(O)=C(C(N)=O)C(=O)[C@@]2(O)C(O)=C3C(=O)c4c(O)cccc4[C@@](C)(O)[C@H]3C[C@@H]12 [Tetracycline], which “Resistance/susceptibility in words (heatmap profile, FIG. 8)” value (shortened to “Resistance/susceptibility in words”) [1] is on record?
Answer: susceptible

Question: What about the “Resistance/susceptibility in words” value ([2]; Parental Wild-Type, panel 120, CLSI M100-ED29:2019) of the same compound?
Answer: resistant

Question: What about the Zone diameter ([2]; S. aureus ATCC 33592 (MRSA), untreated parent, Kirby-Bauer ZOI) of the same compound?
Answer: No Inhibnion

Question: And the “Resistance/susceptibility in words” value [3]?
Answer: susceptible
